According to patent publication US12061143B2, “Methods for rapid determinations of antibiotic susceptibility phenotypes” (priority 2018, dated 2024):
For at least one compound, name, drawing or mass did not settle the structure.

Assays:
Type in all cases: cell-based
[1] = test system: E. coli strain Mu14S; experiment: FAST flow cytometry AST with PB-sQF, bacteria recovered from 10% human blood; settings: Mu14S treated at each resistant breakpoint (tetracycline 16 μg/mL)
Procedure: (§1) Varied counts of bacteria were mixed with human blood and diluted 1:9 (v/v) with bacterial growth medium to desired bacterial concentrations (<10 CFU/mL final solution) and plated to independently confirm CFU/mL blood. Saponin was immediately added and the samples shaken for 15 minutes to achieve selective blood cell lysis. After hemolysis, bacteria were spun down and washed with PBS. The pellets were resuspended in bacterial growth medium and incubated at 37° C. for 2 hours, followed by another 3-hour incubation with antibiotics at various fractions of the minimum inhibition concentration (MIC, as independently determined by microdilution from the pure starting culture, Table 1) for sensitive strains or at the CLSI MIC resistant breakpoints^(12) for the highly resistant strains. Changes in scattered light signals largely resulting from bacterial growth inhibition were monitored by flow cytometry, and the difference in the 2-D scatter histograms with and without antibiotic treatment was quantified with PB-sQF statistics.^(1) Using PB-sQF, distance was calculated for each antibiotic concentration relative to its own no-antibiotic control and expressed as “fold distance” relative to the 99% confidence limit distance between the no-antibiotic control and the sensitive breakpoint. This allowed comparison of fold distances among all samples as each is individually paired to its own control, as is each replicate.
(§2) To simulate a blood specimen from a patient with bacteremia, the isolates were grown, diluted to the desired CFU/mL in blood (ZenBio, Research Triangle Park, NC) and saponin was added to achieve the final diluted sample. Initial bacterial cultures were prepared using Luria-Bertani (LB) broth for (E. coli) or cation-adjusted Mueller-Hinton broth (CAMHB). The fresh bacterial cultures started from ˜0.05 optical density (OD) by inoculating a 6-mL fresh growth medium with overnight culture were grown in an incubator shaker (MaxQ 4000, Thermal Fisher Scientific, Waltham, MA) at 37° C. and 225 rpm. After the culture reached mid-log phase, bacteria were collected and diluted into ˜10 CFU/mL through serial 10-fold dilutions. Bacterial densities were determined by plating onto LB plates. The final 10-fold dilution was performed by adding 500 μL of 100 CFU/mL into 4500 μL of 10% human blood in medium.
(§3) A 2.5% (w/v) of saponin solution was prepared, sonicated (Branson 2510, Emerson, St. Louis, MO) for 20 minutes and spun down with a clinical centrifuge (Centrific Model 228, Fisher Scientific, Waltham, MA) for 4 minutes. The supernatant cleared of particulates was collected. 500 μL of 2.5% saponin was then added to the 5 mL of 10% human blood sample with ˜10 CFU/mL, described above and the mixtures were shaken at 300 rpm for 15 minutes at 37° C. […]

[2] = test system: E. coli strain Mu890; experiment: as above
Procedure: as §1, §2, §3

[3] = test system: K. pneumoniae strain Mu670; experiment: as above; settings: ~9 CFU/mL after 10-fold dilution
Procedure: as §1, §2, §3

[4] = test system: Lab-strain E. coli (ATCC); experiment: FAST with low bacterial counts (500 counts by flow cytometry); settings: each antibiotic at MIC, ¼ MIC and 1/16 MIC, bars beyond the 99% confidence line
From the text: FIG. 14. Bactericidal Antibiotic-induced changes for low counts of E. coli. Lab-strain E. coli (ATCC) ASTs performed with 500 counts by flow cytometry with gentamicin (Gen), penicillin G (PenG), and tetracycline (Tet) each at MIC, ¼ MIC and 1/16 MIC. This strain is seen to be sensitive to all three antibiotics, as the bars extend beyond the 99% confidence line.
While both morphology and growth inhibition occur upon exposure to antibiotics near the minimum inhibitory concentration, standard ASTs are based on growth inhibition alone. The presence of bacteria is clearly indicated by the presence of a particular scattering peak in the multidimensional histogram. This is much more sensitive and less affected by background than is shifts in a peak resulting from morphological changes upon antibiotic exposure. […] For even a few hundred counts, the presence of a bacterial population can be readily assessed with flow cytometry, but error bars and statistical distances must be properly determined relative to no-antibiotic controls. When too few counts for triplicate runs exist, control and each antibiotic exposure histograms are treated as probability distributions that are representative of the true mother distribution for each condition. Each histogram is binned (either adaptively with probability binning or using regular bins) and the distribution of data within each bin is determined. […]

Q: With `CN(C)[C@@H]1C(O)=C(C(N)=O)C(=O)[C@@]2(O)C(O)=C3C(=O)c4c(O)cccc4[C@@](C)(O)[C@H]3C[C@@H]12` [Tetracycline] as the compound, how does the “FAST antibiotic-induced scatter signal change” value [1] read?
A: remained statistically unchanged

Q: What about the “PB-sQF fold distance-based FAST result” value ([2]; Mu890, beyond the 99% confidence level) of the same compound?
A: effective

Q: What about the “FAST antibiotic-induced scatter signal change” value ([2]; Mu890 treated at the MIC, 3-hr incubation, vs paired no-antibiotic control) of the same compound?
A: effective growth inhibition

Q: And the “PB-sQF FAST result” value [3]?
A: effective

Q: And the “PB-sQF AST susceptibility at low counts” value [4]?
A: sensitive
